The reference is the same well before dosing, and untreated signal decays as well.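 Fibroblast labels denote human fibroblasts, mainly primary ones from uterus (C12385, HUF), lung (H6013), bone (Hs27A), adrenal (HADF) and skin (WS1), plus mammary HMF and breast cancer-associated Hs343T. Cancer cells are basal-like or mesenchymal-like triple-negative breast cancer lines. A hit is a response shift exceeding 3x replicate standard deviation. The tissue of the other fibroblasts is not given here.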
Test system: BT20
Experiment: relative JC-1 red fluorescence (viability) vs pre-drug, coculture with fibroblast (fraction); higher = more viable cancer cells
Settings: 10 µM
Protocol: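 JC-1 labelled TNBC cells cocultured 1:1 (1,500 cells each) with CellTrace Violet stained primary or stromal fibroblasts in 384-well plates in FluoroBrite medium, treated with one of 42 anticancer drugs at 0.1, 1, 10 or 100 uM. JC-1 red fluorescence (mitochondrial integrity in cancer cells only) was read by plate reader every 8 h for 72 h. Values are normalised to each well's pre-drug value. The stock of one drug was tenfold lower, so its dose labels may be too high.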

Nc1ncn([C@@H]2O[C@H](CO)[C@@H](O)[C@H]2O)c(=O)n1 [Azacitidine]
relative JC-1 red fluorescence
Settings	8 h	16 h	24 h	32 h	40 h	48 h	56 h	64 h	72 h
coculture fibroblast: C12385	0.8456	0.792	0.779	0.733	0.69	0.671	0.64	0.627	0.603
coculture fibroblast: H6013	0.905	0.787	0.7532	0.7166	0.6944	0.6703	0.676	0.643	0.636
coculture fibroblast: H6019	0.8561	0.829	0.874	0.829	0.806	0.81	0.7958	0.78553	0.7768
coculture fibroblast: H6076	0.957	0.853	0.806	0.805	0.783	0.768	0.776	0.78	0.771
coculture fibroblast: H6231	0.903	0.9034	0.835	0.767	0.727	0.67	0.615	0.584	0.55
coculture fibroblast: HADF	0.959	0.903	0.84	0.815	0.791	0.744	0.721	0.705	0.671
coculture fibroblast: HCFa	0.9208	0.8554	0.784	0.742	0.709	0.667	0.646	0.611	0.573
coculture fibroblast: HCPF	0.85	0.913	0.869	0.8262	0.8003	0.75	0.71	0.701	0.656
coculture fibroblast: HHSteC	0.9151	0.8901	0.8769	0.836	0.801	0.764	0.732	0.714	0.698
coculture fibroblast: HMF	0.809	0.915	0.83	0.792	0.763	0.708	0.668	0.625	0.587
coculture fibroblast: HPFa	0.8933	0.837	0.83	0.759	0.74	0.7	0.672	0.65	0.604
coculture fibroblast: HUF	0.8933	0.842	0.8347	0.763	0.725	0.689	0.676	0.667	0.653
coculture fibroblast: Hs5	0.89	0.938	0.884	0.86088	0.8361	0.789	0.756	0.734	0.725
coculture fibroblast: Hs27A	0.818	0.824	0.819	0.893	0.843	0.886	0.914	0.813	0.783
coculture fibroblast: Hs343T	0.937	0.915	0.843	0.805	0.762	0.725	0.67	0.643	0.606
coculture fibroblast: WS1	0.8495	0.781	0.727	0.67	0.616	0.576	0.538	0.508	0.481

Source: the supplement of paper PMC6078165
